Data: article PMC7862700
Some of the results follow. Construct or isoform of the protein are uncertain.

Each sequence was assayed against T1, ETV4 (UniProt P43268) (assay: DAPPL (digital affinity profiling via proximity ligation, sequencing)). Conditions: 10 mM Tris-HCl pH 7.5, 50 mM NaCl, 1 mM DTT, 4% glycerol, room temperature, 30 min; GST-TFs on glutathione beads, 16-mer random dsDNA library, 0.1% …; high values mean tight binding; double strand, one strand shown; scale: fold enrichment (6-mer frequency, TF over GST control).
T1 sequence: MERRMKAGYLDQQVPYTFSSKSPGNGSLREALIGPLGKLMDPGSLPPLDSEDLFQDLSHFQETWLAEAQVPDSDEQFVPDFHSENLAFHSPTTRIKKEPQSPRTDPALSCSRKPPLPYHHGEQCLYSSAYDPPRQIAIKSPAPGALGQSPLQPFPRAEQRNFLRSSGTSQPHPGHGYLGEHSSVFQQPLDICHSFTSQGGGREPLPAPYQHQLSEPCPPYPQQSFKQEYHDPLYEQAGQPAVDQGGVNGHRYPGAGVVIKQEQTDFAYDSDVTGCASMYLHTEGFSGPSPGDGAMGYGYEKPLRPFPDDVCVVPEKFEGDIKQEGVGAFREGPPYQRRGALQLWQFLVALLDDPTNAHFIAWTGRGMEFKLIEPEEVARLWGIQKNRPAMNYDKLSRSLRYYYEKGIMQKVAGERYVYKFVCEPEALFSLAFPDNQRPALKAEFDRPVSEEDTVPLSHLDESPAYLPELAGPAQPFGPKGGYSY

Sequence	binding signal
TACTAA	1.26
CCCATT	1.32
GGTCCC	1.16
TTTTAA	1.22
CTAACG	1.25
TATGTA	1.26
CTACGA	1.33
GCCTCA	1.3
CTGACT	1.34
ATTTCT	1.45
TTTCGA	1.4
CTCGCC	1.29
ATTTCA	1.3
CACGCC	1.17
ACCCTA	1.22
ATAGCT	1.14
CCCACA	1.2
TGGCAG	1.14
GACCTC	1.54
CATTCC	1.33

A section of the results above, as a working copy:
Sequence	binding signal
TATGTA	1.26
CTACGA	1.33

(listing goes on)

Sequence	binding signal
CCATTC	1.12
TAACAC	1.18
GTTCTA	1.22
AATAGA	1.09
AAAAGG	1.06
CTCTGC	1.67
TCCCCA	1.35
GAAATG	1.61
GTATTC	1.2
TAACCT	1.37
TCTCTA	1.35
TACTGC	1.22
CAATCC	1.23
GCACCC	1.19
GTTGCA	1.12
ACCGGA	3.61
ACATAC	1.18
ATGCGG	1.1
ACCGAC	1.34
